# Some peptides are written in HELM: one residue between dots, names in brackets for other building blocks, links after the first $.
# Experiment: general procedure: solution-phase peptide synthesis; HATU, DIPEA
# [1] = late stage modification step, HCl salt
Substance,step yield (coupling step),step yield [1]
Boc-GGG-AcN,66%,
Boc-GGG-AepicN,69%,
PEPTIDE1{G.G.G.A.[cN]}$$$$V2.0,,52%
PEPTIDE1{G.G.G.A.[epicN]}$$$$V2.0,,98%
PEPTIDE1{[Fmoc].G.G.G.F.[epicQ]}$$$$V2.0,61% yield,

# Source: PMC12117711 (Chemical Science, 2025)
